Data: paper PMC3814187

Columns and labels:
[1] = tested on: thrombin (TB); experiment: competition (QD-FRET reporter strand displacement); conditions: 2 nM QD-TBA20, DNA12-SM reporter displaced, I605/I665 rises to ~3.1 at 100 nM TB, 500 pM TB detectable; TBA 5' C6-amine, cyclooctyne-clicked to DHLA-PEG600-N3 capped CdSe-ZnS QD; PBS (10 mM sodium phosphate, 150 mM NaCl, pH 7.40), 10 uM BSA, room temperature, 2 h; commercial protein; label: QD (donor) on TBA, Atto647N (acceptor) on DNA12-SM
[2] = tested on: thrombin (TB); experiment: binding assay; conditions: PBS (10 mM sodium phosphate, 150 mM NaCl, pH 7.40), 10 uM BSA, room temperature, 2 h; commercial protein; single-stranded DNA

Row | Sequence | binding result [1] | Kd [2]
1 | TTAGTCCGTGGTAGGGCAGGTTGGGGTGACT / CTACCACAGACT [QD-TBA20 pre-hybridized with DNA12-SM reporter] | binds | 
2 | AGTCCGTGGTAGGGCAGGTTGGGGTGACT [29-mer anti-thrombin aptamer] |  | 0.5 nM

For some assays here: Construct, isoform or probe ends are uncertain for at least one entry.
